# Measured values published in the supplement of paper PMC5949888.
# Most values lie at the floor of the assay. Slopes are relative: functional sequences can read slightly below zero.
# Test system: Saccharomyces cerevisiae PS128 hsf1 delta, HSF1(1-493) fusion
# Assay: growth estimate (transactivation domain function in HSF1 fusion, heat-shock survival) (a.u. (slope of normalised read count over time)); higher = stronger growth at 37°C, i.e. more transactivation activity
# Conditions: library: random library
row,Substance,growth estimate
1,RLDRPGGVFSIAKLRAAERT,< -0.25
2,RLDVVARAWPPLRQ,< -0.25
3,RLEFRLREMDAIVHSFGIEL,< -0.25
4,RLEGATRQYV,< -0.25
5,RLG,< -0.25
6,RLGARNSLL,< -0.25
7,RLGCDRAPATGMDCKWLIDC,< -0.25
8,RLGCETVKSFLGVPSGITAR,< -0.25
9,RLGDSHVSASLGERDHLLW,-0.229
10,RLGDWGMCMLGLRLRENGFA,< -0.25
11,RLGENVHGPSPQEPLLPLQG,< -0.25
12,RLGEVSVRFGQTSCFRKLVS,< -0.25
13,RLGHLHIWEPAYCGFDSVAG,< -0.25
14,RLGIF,< -0.25
15,RLGLRSRRLVKCHGSSATAS,< -0.25
16,RLGRRPDEPIGSVVG,< -0.25
17,RLGVCGEIGHQAGINSPIGV,< -0.25
18,RLHEGQTGSQIVWRLLFWSI,< -0.25
19,RLHGRPIKGAGSD,< -0.25
20,RLHKIDRASRAKQ,< -0.25
21,RLHYRLAWAEPL,< -0.25
22,RLICIDRITG,< -0.25
23,RLKRAWICAVLVRPLCPSAK,< -0.25
24,RLKRKDCKPGTEVVELSTLT,< -0.25
25,RLKTGLQSTEAQFIVGTGKV,< -0.25

row,Substance,growth estimate
1,RLLE,< -0.25
2,RLLGSTACGLDKGATQFRAM,< -0.25
3,RLLILF,< -0.25
4,RLLLA,< -0.25
5,RLLNRLLPL,< -0.25
6,RLLQRRGWARSACLFDQSDP,< -0.25
7,RLLSNFRFPWSSSAQSPRLV,< -0.25
8,RLLTGGGWGFYGDITAPRVK,< -0.25
9,RLLTSPFLGRRPCHGVCLTG,< -0.25
10,RLLTSSSQDD,< -0.25
11,RLNTGGSVFSVEGGPRGILA,< -0.25
12,RLPLARSADRNRGLFVCTVS,< -0.25
13,RLPRLQTGTDLEKRWFPHSA,< -0.25
14,RLRAMFRFSLPGSREP,< -0.25
15,RLRGEGS,< -0.25
16,RLRGYRWPVLSQHMLQSVAA,< -0.25
17,RLRHGTN,< -0.25
18,RLRLSPPQGRYRRQPRLGSA,< -0.25
19,RLRLTSFDHRAAIW,< -0.25
20,RLRNLSSFSLHDLVIAETQR,< -0.25
21,RLRREIKRCTETLPSHIARV,< -0.25
22,RLRSLQLNLRSKLPGWDACV,< -0.25
23,RLRVD,< -0.25
24,RLSAGRKPRIILHVKRRSKR,< -0.25
25,RLSASHRGKLWGVDSDSTGV,< -0.25

row,Substance,growth estimate
1,RLSFTQTARGPAGHLPMQPR,< -0.25
2,RLSIHFGAVTDTC,< -0.25
3,RLSKNRRRVFESWWSRTTAW,< -0.25
4,RLSRQGFARVSPYGVAVPVV,< -0.25
5,RLSSRILPGSLVGLAHSSVI,< -0.25
6,RLTIMEESRR,< -0.25
7,RLTPRWVGMGFPNLDGGVAS,< -0.25
8,RLVAALSCCCHVSVSRIA,< -0.25
9,RLVAVREPAFARHRAHVTRV,< -0.25
10,RLVMQ,< -0.25
11,RLVSAAPKPAESQVTHVSSH,< -0.25
12,RLWATGNQE,-0.246
13,RLWFLGVRSRRLGAVWLRAC,< -0.25
14,RMGYGAVYLTSQPRNKVTLL,< -0.25
15,RMIDWAAF,< -0.25
16,RMISAMP,< -0.25
17,RMKGLC,< -0.25
18,RMKSGLAYTQRFK,< -0.25
19,RML,< -0.25
20,RMLVDLQLNRITYIDGLTHQ,-0.24
21,RMLYYK,< -0.25
22,RMMNV,< -0.25
23,RMPGTM,< -0.25
24,RMRAANRRPTAKDPVCDC,< -0.25
25,RMRCGQLGQANCIPG,< -0.25

row,Substance,growth estimate
1,RMRGFIVILVYGRGLDRILQ,< -0.25
2,RMRRADHAPGCYW,< -0.25
3,RMTGTLTNPDKRGDVFTARL,< -0.25
4,RMTSGSNECNTDFNPSSASP,< -0.25
5,RMVSQWTARKQRKLL,< -0.25
6,RNAELYPIRIGLPQWGQAHT,< -0.25
7,RNAG,-0.0399
8,RNCTTMVSVPC,< -0.25
9,RNCVIFPLSRGQVERHLD,< -0.25
10,RNCVVG,< -0.25
11,RNDSEGEHLPATGSSWGNLV,< -0.25
12,RNDVED,< -0.25
13,RNGFKSTAEFPALVAPNARR,< -0.25
14,RNGMLTEAPPSFGWCGDTRV,< -0.25
15,RNIRVRIR,< -0.25
16,RNKSR,< -0.25
17,RNLIPLR,< -0.25
18,RNLVTARYSLEPKDDLQGVE,< -0.25
19,RNMFIDAEGPAKSRTSHSSL,< -0.25
20,RNPNGERLTRRW,< -0.25
21,RNPRPGLSGSLTPLANPRRS,< -0.25
22,RNQEPLPQGATSLSISLTI,-0.227
23,RNRFAAGAVTLDHYSSPISS,< -0.25
24,RNRLPVG,< -0.25
25,RNRQSSNQGVSTNPCLGVHL,< -0.25

# Some of the entries so far, with tabs.
row	Substance	growth estimate
8	RLVAALSCCCHVSVSRIA	< -0.25
12	RLWATGNQE	-0.246
20	RMLVDLQLNRITYIDGLTHQ	-0.24
1	RMRGFIVILVYGRGLDRILQ	< -0.25
2	RMRRADHAPGCYW	< -0.25
6	RNAELYPIRIGLPQWGQAHT	< -0.25
11	RNDSEGEHLPATGSSWGNLV	< -0.25

# (further entries)

row,Substance,growth estimate
1,RNRR,< -0.25
2,RNRTPVCNIRSVSLSIFVAR,< -0.25
3,RNRTTTRIRGAKRL,< -0.25
4,RNSKRGPVRPEHLLH,< -0.25
5,RNSMGGSLGMSGTAIVESIK,< -0.25
6,RNTHFLRSARSRFVVTSNPL,< -0.25
7,RNVKDPAPTRAKFGPQTQ,< -0.25
8,RNVNYLSSELYRMESVSSVS,< -0.25
9,RNYSGQLQKKVSGSASQGAA,< -0.25
10,RPAILWT,< -0.25
11,RPCPFNYLEPKP,< -0.25
12,RPCRNDPGLC,< -0.25
13,RPCRSSHLTQPF,< -0.25
14,RPDNCDTSASCLTVG,< -0.25
15,RPDRSGVIWLSLGQSTVVW,< -0.25
16,RPDV,< -0.25
17,RPEFRWEGLATLAELLLASV,< -0.25
18,RPELHIGRF,< -0.25
19,RPENDVSA,< -0.25
20,RPGGEHRMLQRTWETVSLRL,< -0.25
21,RPGGNGIGRRVPTATSHLNF,< -0.25
22,RPGGPDAGHRILILDC,< -0.25
23,RPGGTRATSSSLI,< -0.25
24,RPGVWPGGWEEVLRRP,0.788
25,RPI,< -0.25

row,Substance,growth estimate
1,RPIHIMFSANLDLPPGARGT,< -0.25
2,RPIRREVLRQSIATTLVPIA,-0.197
3,RPIVVRMRP,< -0.25
4,RPKGLIAGMQ,< -0.25
5,RPKPFTFTPGDPVHRFR,< -0.25
6,RPL,< -0.25
7,RPLGNKLPMERPIRCASGRM,< -0.25
8,RPLLVQDSTRAWCFEGLTLH,< -0.25
9,RPLQ,< -0.25
10,RPLR,< -0.25
11,RPLSRTRTVGKSKRGGRKSR,< -0.25
12,RPMG,< -0.25
13,RPPGRVCSEGEGC,< -0.25
14,RPQ,< -0.25
15,RPRASRPRCPVLGSYRVAIV,< -0.25
16,RPRCQGP,< -0.25
17,RPRLVGFS,< -0.25
18,RPRSP,< -0.25
19,RPRVTRRNCPVSLSAHTTGV,< -0.25
20,RPSGFVLR,< -0.25

# Single entries from the list.
# growth estimate, RPIVVRMRP is entered as < -0.25
# growth estimate, RPRSP is entered as < -0.25
